PubChem BioAssay AID686943 | Drosophila RNAi Screening Center – 2013

Screen: 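Knockdowns that increase or decrease active ERK after insulin receptor stimulation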 (primary screen)
System: Drosophila S2R+ haemocyte-like cells expressing YFP-tagged ERK (Rolled)
Knock-down reagent: long dsRNA against Drosophila genes
Treatment: insulin stimulation versus unstimulated cells; dose and duration not given
Read-out: 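Per-plate z-scores of phospho-ERK immunostaining normalised to YFP-tagged ERK, measured with and without insulin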
Direction: replicate 1, z-score of dpERK with insulin: higher = more active ERK per ERK-YFP after insulin
The screen tested about 23,000 reagents; below is a random part of those that have a named target and a result. 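Extra replicates exist only for a retested subset of genes; insulin dose and duration not given; both raised and lowered dpERK matter.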 Further read-outs or replicates are left out here. Reagent sequences are not shown. The record does not give: the amount of reagent, the time to read-out.

How did the screen score wuc (Wake-up-call) [DRSC06152]?
replicate 1, z-score of dpERK with insulin: -0.47

For Gnpat (Glyceronephosphate O-acyltransferase) [DRSC16960], what does the deposit list?
replicate 1, z-score of dpERK with insulin: 1.41

For CG32121 [DRSC09265], what does the deposit list?
replicate 1, z-score of dpERK with insulin: -0.1

Which result is listed for CG7394 [DRSC10835]?
replicate 1, z-score of dpERK with insulin: -0.97

With CG10274 [DRSC09716], what does the deposit list?
replicate 1, z-score of dpERK with insulin: -0.49

How did the screen score CG4594 [DRSC02762]?
replicate 1, z-score of dpERK with insulin: -0.4

For CG1409 [DRSC17910], how do the results read?
replicate 1, z-score of dpERK with insulin: -1.04

How did the screen score CG14982 [DRSC08440]?
replicate 1, z-score of dpERK with insulin: -3.23

What did the screen give for CG34057 [DRSC08375]?
replicate 1, z-score of dpERK with insulin: -0.28

Which result is listed for CG14837 [DRSC10207]?
replicate 1, z-score of dpERK with insulin: -0.7

With Rpp21 (Ribonuclease P/MRP subunit p21) [DRSC22480], what does the deposit list?
replicate 1, z-score of dpERK with insulin: 0.06

What did the screen give for fd59A (forkhead domain 59A) [DRSC04685]?
replicate 1, z-score of dpERK with insulin: 0.52

Laid out differently: results already given.
| gene | dsRNA | replicate 1, z-score of dpERK with insulin |
| --- | --- | --- |
| CG10274 | DRSC09716 | -0.49 |
| CG4594 | DRSC02762 | -0.4 |
